Data on five compounds can be found in PubChem BioAssay AID248 (DTP/NCI, 2004).

This test deals with L1210 leukemia ip in BDF1 mice, survival T/C. As to the kind of experiment: NCI In Vivo Anticancer Drug Screen. Data for tumor model L1210 Leukemia (intraperitoneal) in B6D2F1 (BDF1) mice. The following applies: T/C endpoint: mean survival time, higher T/C = longer survival.

Structures are written as SMILES. The list shows only some results of the screen, not a fair sample: it is rich in T/C values a quarter to a half above the control, in often repeated tests (any T/C) and in doses without a T/C. Further doses and runs are listed elsewhere. T/C is the treated group as % of the vehicle group. Some doses have a count of surviving animals in place of a T/C: the source holds a T/C of zero for them, seemingly a mark for toxic or unscored doses. Some survivor counts are full or nearly so, which does not show that the dose was tolerated: the source hardly ever lists a survival T/C far under the control, and the zero likely stands for such cases as well. Survivors were counted at the toxicity check, usually on the fifth day, unless a day is given; later deaths do not show. Schedules are NCI's codes, read here as Q, the interval in days (D) or hours (H), X, the number of doses. For survival time, the PubChem record calls one and a half times the control and up active, and a quarter to a half above the control has no call in these data; cut-offs in other NCI protocols can differ. Some T/C values are followed by the survivors on the day toxicity was checked, most often the fifth; where none is given, no animal had died by that day.

Consider `CN(C)c1ccc(N(C)C)nn1`, for which the survivor count is, setting by setting: (dose: 200.0 mg/kg/injection, schedule: Q01DX009 (ip), vehicle: saline with Tween-80) 0 of 6; (dose: 400.0 mg/kg/injection, schedule: Q01DX009 (ip), vehicle: saline with Tween-80) 0 of 6.

Turning to `COC(=O)CCc1c[nH]c2ccc(N(CCCl)CCCl)cc12`, the T/C is, setting by setting: (dose: 3.0 mg/kg/injection, schedule: Q01DX015 (ip), vehicle: carboxymethylcellulose (CMC)) 143 % of control; (dose: 3.8 mg/kg/injection, schedule: Q01DX009 (ip), vehicle: other) 131 % of control [5 of 6 alive]; (dose: 6.0 mg/kg/injection, schedule: Q01DX015 (ip), vehicle: carboxymethylcellulose (CMC)) 142 % of control; (dose: 7.5 mg/kg/injection, schedule: Q01DX009 (ip), vehicle: other) 141 % of control; (dose: 12.0 mg/kg/injection, schedule: Q01DX015 (ip), vehicle: carboxymethylcellulose (CMC)) 134 % of control; (dose: 15.0 mg/kg/injection, schedule: Q04DX003 (ip), vehicle: saline) 139 % of control [5 of 6 alive]. Also, the survivor count is given as 5 of 6 (dose: 24.0 mg/kg/injection, schedule: Q01DX015 (ip), vehicle: carboxymethylcellulose (CMC)); 3 of 6 (dose: 48.0 mg/kg/injection, schedule: Q01DX015 (ip), vehicle: carboxymethylcellulose (CMC)); 4 of 4 (dose: 50.0 mg/kg/injection, schedule: Q01DX001 (ip), vehicle: carboxymethylcellulose (CMC)); 3 of 6 (dose: 60.0 mg/kg/injection, schedule: Q04DX003 (ip), vehicle: saline); 2 of 6 (dose: 90.0 mg/kg/injection, schedule: Q04DX003 (ip), vehicle: saline); 2 of 4 (dose: 100.0 mg/kg/injection, schedule: Q01DX001 (ip), vehicle: carboxymethylcellulose (CMC)). Besides, the survivor count reads like this: (dose: 120.0 mg/kg/injection, schedule: Q04DX003 (ip), vehicle: saline) 4 of 6; (dose: 180.0 mg/kg/injection, schedule: Q04DX003 (ip), vehicle: saline) 0 of 6; (dose: 200.0 mg/kg/injection, schedule: Q01DX001 (ip), vehicle: carboxymethylcellulose (CMC)) 1 of 4; (dose: 400.0 mg/kg/injection, schedule: Q01DX001 (ip), vehicle: carboxymethylcellulose (CMC)) 1 of 4.

On to `CS(=O)(=O)OCCN(CCOS(C)(=O)=O)c1ccc(/C=N/Nc2ccc([N+](=O)[O-])cc2[N+](=O)[O-])cc1`, for which, under “dose: 200.0 mg/kg/injection, schedule: Q01DX001 (ip), vehicle: saline”, the survivor count is 6 of 6.

In the case of `CCOC(=O)CCCCCCCCCC[N+](CC)(CC)CC(=O)c1ccc(NC(C)=O)cc1`, the survivor count (dose: 300.0 mg/kg/injection, schedule: Q01DX001 (ip), vehicle: other) is listed as 3 of 6.

On to `O/N=C/c1ccc(O)cc1`, for which the survivor count (dose: 400.0 mg/kg/injection, schedule: Q01DX001 (ip), vehicle: saline) is reported as 0 of 4.
